Read-outs that look alike come from different tables or passages of the source.
Assay: Taste on oral administration
Set-up: species or system human

SMILES	Taste	Taste (listed as tripentanoin)
CCCCC(=O)O [C5, n-pentanoic acid]	disagreeable taste	very bad taste
CCCCCCCCCCCCCCC(=O)O [C15, n-pentadecanoic acid]	does not have a disagreeable taste	
